# Experimental data published in the supplement of paper PMC12819154, “High-throughput peptide-centric local stability assay extends protein–ligand identification to membrane proteins, tissues and bacteria” (Nature Structural & Molecular Biology, 2025).
# Sequences of proteins named here, by UniProt entry; tags and fusion partners are left off. A change or cut given only in a name is not applied to a line headed by its entry.
# UniProt Q13370: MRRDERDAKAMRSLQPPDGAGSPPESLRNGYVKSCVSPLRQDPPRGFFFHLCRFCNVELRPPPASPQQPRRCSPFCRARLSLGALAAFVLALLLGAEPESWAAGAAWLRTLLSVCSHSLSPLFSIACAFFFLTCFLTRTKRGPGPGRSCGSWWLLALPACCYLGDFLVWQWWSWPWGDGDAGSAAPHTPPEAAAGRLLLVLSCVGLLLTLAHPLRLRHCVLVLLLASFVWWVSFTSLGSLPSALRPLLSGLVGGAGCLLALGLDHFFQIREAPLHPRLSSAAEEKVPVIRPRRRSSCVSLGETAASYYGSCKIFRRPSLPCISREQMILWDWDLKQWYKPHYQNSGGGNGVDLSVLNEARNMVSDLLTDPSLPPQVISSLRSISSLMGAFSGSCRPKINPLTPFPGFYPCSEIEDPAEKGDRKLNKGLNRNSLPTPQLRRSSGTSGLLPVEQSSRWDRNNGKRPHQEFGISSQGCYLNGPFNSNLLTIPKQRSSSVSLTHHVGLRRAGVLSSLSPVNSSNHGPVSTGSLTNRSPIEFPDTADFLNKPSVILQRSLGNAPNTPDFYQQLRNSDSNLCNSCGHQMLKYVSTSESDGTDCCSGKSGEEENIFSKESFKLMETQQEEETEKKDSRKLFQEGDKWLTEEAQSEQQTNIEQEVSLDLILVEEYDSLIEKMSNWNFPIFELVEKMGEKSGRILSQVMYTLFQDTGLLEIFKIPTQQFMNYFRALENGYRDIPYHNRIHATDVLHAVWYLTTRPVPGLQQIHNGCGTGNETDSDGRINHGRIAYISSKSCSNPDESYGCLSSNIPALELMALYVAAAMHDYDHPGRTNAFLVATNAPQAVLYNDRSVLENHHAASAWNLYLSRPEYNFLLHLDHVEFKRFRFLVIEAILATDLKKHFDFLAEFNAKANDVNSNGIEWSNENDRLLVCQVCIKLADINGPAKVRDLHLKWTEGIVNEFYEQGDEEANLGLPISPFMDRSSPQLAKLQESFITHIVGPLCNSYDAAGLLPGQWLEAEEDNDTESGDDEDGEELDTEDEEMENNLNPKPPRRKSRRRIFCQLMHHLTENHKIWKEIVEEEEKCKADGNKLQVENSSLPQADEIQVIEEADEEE
# UniProt Q147X3: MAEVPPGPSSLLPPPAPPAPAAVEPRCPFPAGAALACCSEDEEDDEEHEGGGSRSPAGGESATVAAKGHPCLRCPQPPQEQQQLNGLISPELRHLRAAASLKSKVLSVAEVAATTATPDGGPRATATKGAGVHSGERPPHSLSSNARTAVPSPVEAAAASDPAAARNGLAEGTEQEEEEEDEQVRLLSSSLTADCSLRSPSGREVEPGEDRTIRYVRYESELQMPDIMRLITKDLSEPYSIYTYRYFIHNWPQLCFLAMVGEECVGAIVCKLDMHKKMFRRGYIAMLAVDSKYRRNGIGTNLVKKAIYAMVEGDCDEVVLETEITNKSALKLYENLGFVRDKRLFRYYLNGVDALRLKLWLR
# UniProt Q14240, whole entry: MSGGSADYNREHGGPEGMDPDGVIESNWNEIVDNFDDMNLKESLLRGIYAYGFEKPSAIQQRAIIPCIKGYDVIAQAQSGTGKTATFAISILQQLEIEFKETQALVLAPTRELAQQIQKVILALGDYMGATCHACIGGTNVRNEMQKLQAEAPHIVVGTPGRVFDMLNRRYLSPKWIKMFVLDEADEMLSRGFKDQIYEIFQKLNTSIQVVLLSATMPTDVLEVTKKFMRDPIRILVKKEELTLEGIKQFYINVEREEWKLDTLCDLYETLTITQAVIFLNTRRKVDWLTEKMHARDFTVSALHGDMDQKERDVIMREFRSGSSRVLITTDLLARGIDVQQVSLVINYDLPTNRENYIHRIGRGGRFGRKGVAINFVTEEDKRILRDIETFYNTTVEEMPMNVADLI
# UniProt Q13469: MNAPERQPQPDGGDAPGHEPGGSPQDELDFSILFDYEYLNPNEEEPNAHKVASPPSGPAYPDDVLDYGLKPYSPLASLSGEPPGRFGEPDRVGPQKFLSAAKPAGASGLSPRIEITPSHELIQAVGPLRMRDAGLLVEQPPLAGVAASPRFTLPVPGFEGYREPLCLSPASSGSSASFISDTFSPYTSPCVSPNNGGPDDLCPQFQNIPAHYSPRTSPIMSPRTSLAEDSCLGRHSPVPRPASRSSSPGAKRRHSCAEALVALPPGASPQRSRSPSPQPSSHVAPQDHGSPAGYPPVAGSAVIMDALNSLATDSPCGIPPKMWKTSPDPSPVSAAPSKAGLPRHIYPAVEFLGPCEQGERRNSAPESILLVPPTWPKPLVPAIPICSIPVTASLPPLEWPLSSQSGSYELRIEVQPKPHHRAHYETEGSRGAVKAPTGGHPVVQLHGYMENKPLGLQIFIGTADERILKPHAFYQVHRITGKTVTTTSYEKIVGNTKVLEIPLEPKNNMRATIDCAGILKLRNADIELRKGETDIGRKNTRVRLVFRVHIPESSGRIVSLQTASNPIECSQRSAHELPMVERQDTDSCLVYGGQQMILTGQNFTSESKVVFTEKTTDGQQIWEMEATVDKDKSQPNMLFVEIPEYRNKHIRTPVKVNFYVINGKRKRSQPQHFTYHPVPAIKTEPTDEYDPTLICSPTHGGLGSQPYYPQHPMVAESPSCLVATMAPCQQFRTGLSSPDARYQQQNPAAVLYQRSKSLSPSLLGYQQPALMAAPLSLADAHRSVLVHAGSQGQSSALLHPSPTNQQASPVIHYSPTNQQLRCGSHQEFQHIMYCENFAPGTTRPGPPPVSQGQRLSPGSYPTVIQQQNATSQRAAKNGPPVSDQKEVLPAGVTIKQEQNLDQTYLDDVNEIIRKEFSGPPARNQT
# UniProt Q15004: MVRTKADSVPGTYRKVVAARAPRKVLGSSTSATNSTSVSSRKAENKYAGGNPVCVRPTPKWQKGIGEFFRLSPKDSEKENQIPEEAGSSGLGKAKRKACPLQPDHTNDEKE
# UniProt Q13242, whole entry: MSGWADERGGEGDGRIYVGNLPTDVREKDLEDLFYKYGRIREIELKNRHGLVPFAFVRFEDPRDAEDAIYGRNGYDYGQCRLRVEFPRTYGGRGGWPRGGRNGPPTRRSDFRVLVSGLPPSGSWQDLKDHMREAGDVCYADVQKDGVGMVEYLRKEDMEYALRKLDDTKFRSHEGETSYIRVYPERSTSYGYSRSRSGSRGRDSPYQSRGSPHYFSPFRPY
# UniProt Q13158: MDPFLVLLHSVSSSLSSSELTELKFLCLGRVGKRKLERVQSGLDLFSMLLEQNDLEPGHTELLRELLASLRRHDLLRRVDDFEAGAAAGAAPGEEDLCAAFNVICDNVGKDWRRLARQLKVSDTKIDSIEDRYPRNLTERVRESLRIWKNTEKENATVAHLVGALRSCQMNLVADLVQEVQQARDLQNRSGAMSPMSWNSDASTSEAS
# UniProt Q15050: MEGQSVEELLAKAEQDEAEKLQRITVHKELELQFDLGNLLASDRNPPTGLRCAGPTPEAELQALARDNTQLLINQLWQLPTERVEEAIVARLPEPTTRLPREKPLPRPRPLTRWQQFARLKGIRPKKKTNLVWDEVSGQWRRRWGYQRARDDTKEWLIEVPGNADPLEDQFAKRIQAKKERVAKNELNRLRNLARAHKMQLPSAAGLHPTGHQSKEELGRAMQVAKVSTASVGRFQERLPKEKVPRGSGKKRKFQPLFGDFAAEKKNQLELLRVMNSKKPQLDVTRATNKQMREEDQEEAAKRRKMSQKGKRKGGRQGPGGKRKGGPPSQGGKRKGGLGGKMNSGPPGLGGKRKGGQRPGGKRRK
# UniProt Q13490, whole entry: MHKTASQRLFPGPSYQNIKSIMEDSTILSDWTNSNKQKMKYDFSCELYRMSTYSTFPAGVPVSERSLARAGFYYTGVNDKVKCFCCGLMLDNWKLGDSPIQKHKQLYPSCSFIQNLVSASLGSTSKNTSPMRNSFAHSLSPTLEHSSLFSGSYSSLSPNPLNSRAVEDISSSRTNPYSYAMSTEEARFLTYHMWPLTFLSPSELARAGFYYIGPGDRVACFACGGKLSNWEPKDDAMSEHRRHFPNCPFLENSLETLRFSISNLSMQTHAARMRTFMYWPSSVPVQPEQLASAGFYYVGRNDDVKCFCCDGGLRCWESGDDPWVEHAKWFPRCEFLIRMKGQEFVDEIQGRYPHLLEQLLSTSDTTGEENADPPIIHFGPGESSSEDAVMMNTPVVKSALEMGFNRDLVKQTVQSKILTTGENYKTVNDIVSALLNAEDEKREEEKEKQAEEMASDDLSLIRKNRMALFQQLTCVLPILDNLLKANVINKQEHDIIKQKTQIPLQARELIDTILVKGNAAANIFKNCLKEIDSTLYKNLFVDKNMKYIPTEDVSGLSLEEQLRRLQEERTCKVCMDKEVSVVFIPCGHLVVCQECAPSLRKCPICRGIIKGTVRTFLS
# UniProt Q14161: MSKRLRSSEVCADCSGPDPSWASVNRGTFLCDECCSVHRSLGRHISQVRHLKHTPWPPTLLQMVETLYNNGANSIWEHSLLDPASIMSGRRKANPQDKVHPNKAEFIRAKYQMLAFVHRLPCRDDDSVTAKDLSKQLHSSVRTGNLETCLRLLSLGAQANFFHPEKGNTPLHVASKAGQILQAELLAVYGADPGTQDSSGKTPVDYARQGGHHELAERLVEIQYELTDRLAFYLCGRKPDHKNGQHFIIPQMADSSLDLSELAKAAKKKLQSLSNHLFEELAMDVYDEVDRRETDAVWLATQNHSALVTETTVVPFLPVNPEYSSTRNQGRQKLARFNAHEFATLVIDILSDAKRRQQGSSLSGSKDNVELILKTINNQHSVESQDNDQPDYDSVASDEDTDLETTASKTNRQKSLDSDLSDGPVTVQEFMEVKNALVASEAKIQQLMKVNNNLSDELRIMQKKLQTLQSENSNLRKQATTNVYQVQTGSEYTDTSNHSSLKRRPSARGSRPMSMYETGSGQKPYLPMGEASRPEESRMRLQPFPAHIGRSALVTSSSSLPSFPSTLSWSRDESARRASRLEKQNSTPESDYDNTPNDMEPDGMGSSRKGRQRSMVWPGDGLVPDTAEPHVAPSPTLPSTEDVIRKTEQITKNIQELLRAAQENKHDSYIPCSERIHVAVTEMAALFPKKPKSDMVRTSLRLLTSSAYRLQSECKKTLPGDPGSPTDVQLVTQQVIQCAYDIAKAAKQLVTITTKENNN
# UniProt Q14CX7, whole entry: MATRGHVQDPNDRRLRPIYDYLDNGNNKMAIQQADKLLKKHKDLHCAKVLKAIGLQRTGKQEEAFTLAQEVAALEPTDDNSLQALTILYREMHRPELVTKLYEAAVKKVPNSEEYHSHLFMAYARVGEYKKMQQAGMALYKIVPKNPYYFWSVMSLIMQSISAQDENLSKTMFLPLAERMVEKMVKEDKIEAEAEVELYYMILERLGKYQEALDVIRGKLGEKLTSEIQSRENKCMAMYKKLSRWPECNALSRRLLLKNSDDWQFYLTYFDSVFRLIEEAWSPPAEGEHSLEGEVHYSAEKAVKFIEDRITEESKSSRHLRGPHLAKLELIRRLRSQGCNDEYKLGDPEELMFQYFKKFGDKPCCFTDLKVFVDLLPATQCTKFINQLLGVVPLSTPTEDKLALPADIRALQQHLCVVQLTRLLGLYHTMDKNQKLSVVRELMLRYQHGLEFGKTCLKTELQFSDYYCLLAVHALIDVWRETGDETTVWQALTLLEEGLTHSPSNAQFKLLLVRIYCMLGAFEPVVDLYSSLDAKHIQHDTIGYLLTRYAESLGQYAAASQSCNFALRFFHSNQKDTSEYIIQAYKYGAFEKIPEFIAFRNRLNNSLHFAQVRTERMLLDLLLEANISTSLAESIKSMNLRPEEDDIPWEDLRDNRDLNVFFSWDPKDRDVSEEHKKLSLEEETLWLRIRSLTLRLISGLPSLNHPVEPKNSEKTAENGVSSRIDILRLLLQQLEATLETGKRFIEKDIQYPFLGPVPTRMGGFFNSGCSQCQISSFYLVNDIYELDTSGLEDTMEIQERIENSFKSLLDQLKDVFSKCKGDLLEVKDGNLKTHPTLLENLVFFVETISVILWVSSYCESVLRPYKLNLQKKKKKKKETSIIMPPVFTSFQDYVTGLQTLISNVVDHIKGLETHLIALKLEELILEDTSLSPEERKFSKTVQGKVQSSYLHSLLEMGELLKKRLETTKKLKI
# UniProt Q13907: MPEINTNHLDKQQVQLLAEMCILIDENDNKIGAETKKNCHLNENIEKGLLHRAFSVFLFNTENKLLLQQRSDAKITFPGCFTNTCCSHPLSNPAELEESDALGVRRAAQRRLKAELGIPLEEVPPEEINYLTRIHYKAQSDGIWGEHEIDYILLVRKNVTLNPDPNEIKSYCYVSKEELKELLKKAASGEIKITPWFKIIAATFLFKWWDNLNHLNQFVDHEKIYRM
# UniProt Q14019: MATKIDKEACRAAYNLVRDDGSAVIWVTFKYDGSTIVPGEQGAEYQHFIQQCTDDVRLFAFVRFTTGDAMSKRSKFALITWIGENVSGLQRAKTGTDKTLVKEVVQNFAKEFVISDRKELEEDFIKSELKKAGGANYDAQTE
# The other results are listed elsewhere or left out. Small differences around the control level are noise.
# Compound: CN[C@@H]1C[C@H]2O[C@@](C)([C@@H]1OC)n1c3ccccc3c3c4c(c5c6ccccc6n2c5c31)C(=O)NC4 [staurosporine]
# Assay: log2 fold change of tryptic peptide abundance, ligand vs vehicle (limited proteolysis) (log2 ratio); higher = more trypsin-susceptible (destabilized)
# Conditions: ligand concentration: 20 uM; sample: K562 cleared lysate; digestion: 4 min, 22 C (HT-PELSA RT4min, Orbitrap Astral)
row,Target,log2 fold change
1,"PDE3B (peptide sequence: SSSVSLTHHVGLR, peptide start residue: 493) (UniProt Q13370)",0.599
2,"PLD1 (peptide sequence: IAADMSNIIENLDTR, peptide start residue: 17) (UniProt Q13393)",-0.442
3,"ATM (peptide sequence: LIRDPETIK, peptide start residue: 33) (UniProt Q13315)",0.543
4,"GOLGA4 (peptide sequence: KEQELTKK, peptide start residue: 492) (UniProt Q13439)",0.493
5,"UniProt Q147X3 (peptide sequence: YYLNGVDALR, peptide start residue: 347)",0.364
6,"UniProt Q14240 (peptide sequence: LQAEAPHIVVGTPGR, peptide start residue: 148)",0.372
7,"NFATC2 (peptide sequence: VHIPESSGR, peptide start residue: 548) (UniProt Q13469)",0.239
8,"UniProt Q15004 (peptide sequence: KACPLQPDHTNDEKE, peptide start residue: 97)",-0.219
9,"MPP2 (peptide sequence: TLVLIGAQGVGR, peptide start residue: 340) (UniProt Q14168)",0.304
10,"UniProt Q13243 (peptide sequence: GFGFVEFEDPR, peptide start residue: 38)",-0.106
11,"UniProt Q13242 (peptide sequence: GRDSPYQSR, peptide start residue: 201)",0.579
12,"FADD (peptide sequence: IDSIEDRYPR, peptide start residue: 126) (UniProt Q13158)",0.291
13,"RRS1 (peptide sequence: EKPLPRPR, peptide start residue: 102) (UniProt Q15050)",0.3
14,"NCAPD2 (peptide sequence: FPNLVDPWTPHLYAR, peptide start residue: 1086) (UniProt Q15021)",-0.382
15,"BIRC2 (peptide sequence: TQIPLQAR, peptide start residue: 500) (UniProt Q13490)",0.465
16,"GIT2 (peptide sequence: QQGSSLSGSKDNVELILK, peptide start residue: 357) (UniProt Q14161)",0.408
17,"PDCD11 (peptide sequence: KGSEHQAIVQHLEK, peptide start residue: 924) (UniProt Q14690)",-1.24
18,"SNW1 (peptide sequence: GYTIPLDKR, peptide start residue: 259) (UniProt Q13573)",0.216
19,"GAB1 (peptide sequence: LTGDPDVLEYYKNDHAK, peptide start residue: 38) (UniProt Q13480)",-0.311
20,"ADAM9 (peptide sequence: QPQQFPSRPPPPQPK, peptide start residue: 782) (UniProt Q13443)",-0.468
21,"UniProt Q14CX7 (peptide sequence: KMQQAGMALYK, peptide start residue: 131)",1.02
22,"COG2 (peptide sequence: ALNQLSVPLGQLR, peptide start residue: 84) (UniProt Q14746)",-0.772
23,"IDI1 (peptide sequence: SYCYVSKEELK, peptide start residue: 170) (UniProt Q13907)",-0.262
24,"COTL1 (peptide sequence: KELEEDFIKSELK, peptide start residue: 118) (UniProt Q14019)",-0.64

# An excerpt of these results, with tabs.
row	Target	log2 fold change
20	ADAM9 (peptide sequence: QPQQFPSRPPPPQPK, peptide start residue: 782) (UniProt Q13443)	-0.468
21	UniProt Q14CX7 (peptide sequence: KMQQAGMALYK, peptide start residue: 131)	1.02
